Assay results taken from patent US6348454B1, “Syntheses of new isodethiaazacephems and isodethiaazacephams, and use as potent antibacterial agents” (National Science Council, priority 1999, dated 2002).
Some entries share one result that the patent states for a list of compounds.

Experiment: Stability of β-lactams in water at various pH
Conditions: pH 12
Protocol: In another series of assays, we dissolved isodethiaazacephems (±)−3 and (±)−4 as well as isodethiaazacepham (±)−5 in distilled water (5.0 mg/mL).

| Compound | time within which destructed |
| --- | --- |
| O=C(Cc1ccccc1)N[C@@H]1C(=O)N2C(C(=O)O)=C(OS(=O)(=O)C(F)(F)F)NC[C@H]12 (racemic) [(±)-4, (6RS,7SR)-3-Trifluoromethanesulfonyloxy-8-oxo-7-(phenylacetamido)-1,4-diazabicyclo[4.2.0]oct-2-ene-2-carboxylic Acid] | 5 to 10 min |
| CS(=O)(=O)OC1=C(C(=O)O)N2C(=O)[C@@H](NC(=O)Cc3ccccc3)[C@H]2CN1 (racemic) [(±)-3, (6RS,7SR)-3-Methanesulfonyloxy-8-oxo-7-(phenylacetamido)-1,4-diazabicyclo[4.2.0]oct-2-ene-2-carboxylic Acid] | 5 to 10 min |
